Reference: PMC11580166, “VPS26 Moonlights as a β-Arrestin-like Adapter for a 7-Transmembrane RGS Protein in Arabidopsis thaliana” (Biochemistry, 2024)
No constants are given. Whether binding was seen depends on the method and setting.

Legend:
[1] = target: Vacuolar Protein Sorting-Associated 26B (AtVPS26B) (Arabidopsis thaliana) (UniProt Q9T091); experiment: MST; 20 nM fluorescence-labelled protein (RED-NHS or RED-…), ligand dilution series, 25 °C, PBS pH 7.4, 0.05% Tween-20; apparent Kd; averages of 2 to 4 experiments; both purified
[2] = target: Vacuolar Protein Sorting-Associated 26A (AtVPS26A) (Arabidopsis thaliana) (UniProt Q9FJD0); experiment: as above
[3] = target: Vacuolar Protein Sorting-Associated 26A (AtVPS26A) (Arabidopsis thaliana) (UniProt Q9FJD0); experiment: as above; remark: listed apart in the source
[4] = target: Vacuolar Protein Sorting-Associated 26A (AtVPS26A) (Arabidopsis thaliana) (UniProt Q9FJD0); experiment: mass photometry; VPS26A, VPS26B alone or mixed 1:1, in solution; typical working concentrations 5-25 nM; both purified
[5] = target: T1, Vacuolar Protein Sorting-Associated 26B (AtVPS26B) (Arabidopsis thaliana), Q9T091; experiment: as above; conditions: remark: other sources report otherwise
T1 chain: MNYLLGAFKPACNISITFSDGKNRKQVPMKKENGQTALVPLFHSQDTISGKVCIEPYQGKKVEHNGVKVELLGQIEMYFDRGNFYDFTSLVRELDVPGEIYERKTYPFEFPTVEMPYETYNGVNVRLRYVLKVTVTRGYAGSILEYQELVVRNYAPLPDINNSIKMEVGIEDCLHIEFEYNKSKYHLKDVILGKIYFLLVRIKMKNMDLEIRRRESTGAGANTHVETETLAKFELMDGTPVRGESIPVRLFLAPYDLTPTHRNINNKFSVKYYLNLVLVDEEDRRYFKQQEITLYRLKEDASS

[6] = target: T1, Vacuolar Protein Sorting-Associated 26B …; experiment: MST; 20 nM fluorescence-labelled protein (RED-NHS or RED-…), ligand dilution series, 25 °C, PBS pH 7.4, 0.05% Tween-20; apparent Kd; averages of 2 to 4 experiments; both purified; conditions: remark: other sources report otherwise

B1: AtRGS1 cytoplasmic domain lacking the tail (L253-E420) (domain or fragment, UniProt Q8H1F2 253-420)
chain: LSQISLKKRQNFEFQRMGQALGIPDSGLLFRKEEFRPVDPNEPLDKLLLNKRFRHSFMEFADSCYAGETLHFFEEVYEHGKIPEDDSIRRIYMARHIMEKFIVAGAEMELNLSHKTRQEILTTQDLTHTDLFKNALNEVMQLIKMNLVRDYWSSIYFIKFKEEESCHE
With B1 the binding [1] was “no binding” and the binding [2] was “no binding”.

B2: Vacuolar Protein Sorting-Associated 26A (AtVPS26A) (natural protein, Arabidopsis thaliana, UniProt Q9FJD0 1-302, looked up)
chain: MNYLLGAFKPACNISITFTDGKNRKQVPTKKDNGQIVMNPLFQSQETIAGKINIEPYQGKKVEHNGVKVELLGQIEMYFDRGNFYDFTSLVREIDVPGEIYERKTYPFEFSSVEMPYETYNGVNVRLRYVLKVTVTRGYAGSIVEYQDFVVRNYVPLPPINNSIKMEVGIEDCLHIEFEYNKSKYHLKDVILGKIYFLLVRIKIKNMDLEIRRRESTGAGANTHVETETLAKFELMDGAPVRGESIPVRVFLTPYDLTPTHKNINNKFSVKYYLNLVLVDEEDRRYFKQQEITLYRLKEETS
notes: AtVPS26A, Arabidopsis thaliana, UniProt Q9FJD0, gene At5g53530; Fluorescently labelled (Monolith RED-NHS or RED-MALEIMIDE kit) when it was the labelled partner in MST; the His-SUMO tag may have been kept in mass photometry (surmise); also called AtVSP26A; source: E. coli BL21 (DE3), purified (nickel resin, ULP1 cleavage, second nickel, SEC)
B2 was tested, and the binding [3] was “no binding” and the binding [4] was “no binding”.

B3: Vacuolar Protein Sorting-Associated 26B (AtVPS26B), Q9T091 1-303 (protein)
chain: MNYLLGAFKPACNISITFSDGKNRKQVPMKKENGQTALVPLFHSQDTISGKVCIEPYQGKKVEHNGVKVELLGQIEMYFDRGNFYDFTSLVRELDVPGEIYERKTYPFEFPTVEMPYETYNGVNVRLRYVLKVTVTRGYAGSILEYQELVVRNYAPLPDINNSIKMEVGIEDCLHIEFEYNKSKYHLKDVILGKIYFLLVRIKMKNMDLEIRRRESTGAGANTHVETETLAKFELMDGTPVRGESIPVRLFLAPYDLTPTHRNINNKFSVKYYLNLVLVDEEDRRYFKQQEITLYRLKEDASS
B3 was tested, and the binding [5] was “no binding” and the binding [6] was “no binding”.
